# PubChem BioAssay AID1159593, NIAID, 2016
# Screen: 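TLR pathway parts governing NF-kappaB p65 translocation after LPS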
# Cells: RAW264.7 macrophages of mouse, with reporters for p65 (GFP) and the Tnf promoter (mCherry)
# Knock-down reagent: single siRNA against mouse genes
# Time to read-out: 48 to 72 hours after siRNA transfection, then LPS for 40 min
# Conditions: LPS (Salmonella minnesota R595) for 40 min before fixation; dose not given
# Measured: 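High-content imaging of GFP-p65 moving into nuclei after 40 min LPS, plate median/MAD normalised, replicate mean of robust z-score relative to negative controls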
# Direction: p65 translocation z-score: higher = more nuclear NF-kappaB p65 after LPS
# Active means: 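Activity score grows with absolute z: 25 beyond 1, 50 beyond 1.5, 75 beyond 2, 100 beyond 2.5; active calls here sit at about z 1.5 or more either way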
# Calls: active = changed p65 translocation (either direction); inactive = no clear change
# Here is an unselected part of 756 deposited reagents. 137 of them (18%) count as active. 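Active means p65 translocation went either up or down; genes were judged on the median of six siRNAs, not single siRNAs.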 Reagents against one gene are numbered here. Reagent sequences are not shown. Not given: the amount of reagent.
target,reagent,p65 translocation z-score,activity call
Itgam,1,0.0369,inactive
Itgam,2,-0.29,inactive
Itgam,3,-0.359,inactive
Itgam,4,0.643,inactive
Itgam,5,-1.11,inactive
Itgam,6,-0.915,inactive
Fos,1,-3.63,active
Fos,2,-0.179,inactive
Fos,3,-0.59,inactive
Fos,4,-1.33,inactive
Fos,5,-0.732,inactive
Fos,6,-1.05,inactive
Tlr2,1,-0.553,inactive
Tlr2,2,-0.963,inactive
Tlr2,3,0.925,inactive
Tlr2,4,0.41,inactive
Tlr2,5,0.966,inactive
Tlr2,6,0.258,inactive
Tlr4,1,-0.302,inactive
Tlr4,2,-2.06,active
Tlr4,3,-3.15,active
Tlr4,4,-3.36,active
Tlr4,5,-1.54,active
Tlr4,6,-4.14,active
Peli1,1,-0.385,inactive
Peli1,2,-0.571,inactive
Peli1,3,-0.56,inactive
Peli1,4,0.786,inactive
Peli1,5,-1.6,active
Peli1,6,-0.84,inactive
Relb,1,-0.00994,inactive
Relb,2,-0.437,inactive
Relb,3,-2.41,active
Relb,4,0.272,inactive
Relb,5,-1.16,inactive
Relb,6,-1.58,active
Mapkapk2,1,-1.39,inactive
Mapkapk2,2,0.486,inactive
Mapkapk2,3,-0.525,inactive
Mapkapk2,4,-1.56,active
Mapkapk2,5,-0.211,inactive
Mapkapk2,6,-0.564,inactive
Otud5,1,-0.515,inactive
Otud5,2,0.186,inactive
Otud5,3,-0.391,inactive
Otud5,4,0.971,inactive
Otud5,5,-0.231,inactive
Otud5,6,0.885,inactive
Crebbp,1,-0.398,inactive
Crebbp,2,-2.64,active
Crebbp,3,-0.76,inactive
Crebbp,4,-0.812,inactive
Crebbp,5,0.174,inactive
Crebbp,6,0.338,inactive
Ube2n,1,0.179,inactive
Ube2n,2,-1.1,inactive
Ube2n,3,0.69,inactive
Ube2n,4,0.0273,inactive
Ube2n,5,-2.01,active
Ube2n,6,0.144,inactive
Irf7,1,-0.569,inactive
Irf7,2,0.15,inactive
Irf7,3,0.122,inactive
Irf7,4,-0.646,inactive
Irf7,5,-0.777,inactive
Irf7,6,-0.486,inactive
Traf3,1,0.296,inactive
Traf3,2,-0.0827,inactive
Traf3,3,0.252,inactive
Traf3,4,0.0278,inactive
Traf3,5,2.08,active
Traf3,6,0.782,inactive

Next part (6 carried over from the part before).
target,reagent,p65 translocation z-score,activity call
Traf3,1,0.296,inactive
Traf3,2,-0.0827,inactive
Traf3,3,0.252,inactive
Traf3,4,0.0278,inactive
Traf3,5,2.08,active
Traf3,6,0.782,inactive
Map2k6,1,-1.56,active
Map2k6,2,-1.45,inactive
Map2k6,3,0.047,inactive
Map2k6,4,-0.0989,inactive
Map2k6,5,4.63,active
Map2k6,6,0.516,inactive
Dusp1,1,0.153,inactive
Dusp1,2,-0.227,inactive
Dusp1,3,-0.028,inactive
Dusp1,4,0.406,inactive
Dusp1,5,-1.54,active
Dusp1,6,-1.47,inactive
Irak1,1,-0.89,inactive
Irak1,2,0.232,inactive
Irak1,3,-0.542,inactive
Irak1,4,-1.09,inactive
Irak1,5,0.577,inactive
Irak1,6,-0.175,inactive
Ptk2b,1,1.05,inactive
Ptk2b,2,1.15,inactive
Ptk2b,3,-0.126,inactive
Ptk2b,4,-0.468,inactive
Ptk2b,5,-0.196,inactive
Ptk2b,6,-0.14,inactive
Btk,1,-0.0989,inactive
Btk,2,-0.72,inactive
Btk,3,-1.42,inactive
Btk,4,-2.3,active
Btk,5,-0.83,inactive
Btk,6,-0.00458,inactive
Akt2,1,-1.05,inactive
Akt2,2,-0.467,inactive
Akt2,3,0.534,inactive
Akt2,4,0.721,inactive
Akt2,5,-1.09,inactive
Akt2,6,1.53,active
Ly86,1,0.111,inactive
Ly86,2,-1.86,active
Ly86,3,-0.61,inactive
Ly86,4,-1.78,active
Ly86,5,1.52,active
Ly86,6,-0.085,inactive
